Laboratory results: PubChem BioAssay AID1508597 (Cure First, 2020)
This is an unselected part of the about 2,100 reagents, in one setting of the screen. 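Calls flag viability under 80% in either arm, not effects specific to rucaparib; the reference for percent is not stated.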 Unmarked entries are inactive. Reagents against one gene are numbered here. A reagent listed more than once was tested more than once; the source does not tell the runs apart. Not given: the 100% reference.

Screen: 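Genes whose silencing sensitises or protects ovarian cancer cells against rucaparib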 (primary screen)
Cells: human ovarian carcinoma lines grown from tumours: OCI-P5x (papillary serous) and OCI-C5x (clear cell)
Knock-down reagent: siRNA pool against human genes, 1.25 pmol siRNA per well
Duration: 72 h or 96 h, depending on the cell culture
Treatment: rucaparib 20 µM (about IC30) or vehicle, present until read-out
Rucaparib or vehicle: Rucaparib
Cell line: OCI-C5x (clear cell)
Measurement: 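Luminescent ATP-based viability assay read 72 or 96 h after transfection, depending on culture, given as normalised percent viability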
Reading the numbers: viability, normalised: higher = more viable cells remaining
Active means: 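Active when normalised viability falls below 80 percent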
Meaning of the calls: active = viability under 80%; inactive = viability 80% or more

With AANAT, technical replicate 1, what does the deposit list?
viability, normalised (%): 47.9 (active)

With AANAT, technical replicate 2, what does the deposit list?
viability, normalised (%): 40.4 (active)

What is on record for AANAT, technical replicate 3?
viability, normalised (%): 40.3 (active)

For CDK12 #1, technical replicate 1, what was measured?
viability, normalised (%): 47.6 (active)

What is on record for CDK12 #1, technical replicate 2?
viability, normalised (%): 44.8 (active)

For CDK12 #1, technical replicate 2, what was measured?
viability, normalised (%): 56 (active)

With CDK12 #1, technical replicate 3, how do the results read?
viability, normalised (%): 60.5 (active)

Which result is listed for CDK12 #1, technical replicate 3?
viability, normalised (%): 53.9 (active)

With CDK12 #2, technical replicate 1, what does the deposit list?
viability, normalised (%): 51.8 (active)

With CDK12 #2, technical replicate 2, what does the deposit list?
viability, normalised (%): 50.9 (active)

What is on record for CDK12 #2, technical replicate 3?
viability, normalised (%): 34 (active)

What is on record for UPF1, technical replicate 1?
viability, normalised (%): 48.5 (active)

For UPF1, technical replicate 2, what does the deposit list?
viability, normalised (%): 43.5 (active)

For UPF1, technical replicate 3, what does the deposit list?
viability, normalised (%): 30.6 (active)

For MPP4, technical replicate 1, what was measured?
viability, normalised (%): 45.9 (active)

With MPP4, technical replicate 2, what was measured?
viability, normalised (%): 48.5 (active)

For MPP4, technical replicate 3, what does the deposit list?
viability, normalised (%): 57.3 (active)

What is on record for PCNA, technical replicate 1?
viability, normalised (%): 37.2 (active)

How did the screen score PCNA, technical replicate 2?
viability, normalised (%): 27.2 (active)

How did the screen score PCNA, technical replicate 3?
viability, normalised (%): 47.3 (active)

Which result is listed for NSD2, technical replicate 1?
viability, normalised (%): 47.4 (active)

With NSD2, technical replicate 2, what does the deposit list?
viability, normalised (%): 58.1 (active)

How did the screen score NSD2, technical replicate 3?
viability, normalised (%): 37.9 (active)

What is on record for GUCY2C, technical replicate 1?
viability, normalised (%): 66 (active)

With GUCY2C, technical replicate 2, how do the results read?
viability, normalised (%): 61.1 (active)

How did the screen score GUCY2C, technical replicate 3?
viability, normalised (%): 52.5 (active)

What did the screen give for TSTD1, technical replicate 1?
viability, normalised (%): 70 (active)

Which result is listed for TSTD1, technical replicate 2?
viability, normalised (%): 48.6 (active)

With TSTD1, technical replicate 3, how do the results read?
viability, normalised (%): 50.4 (active)

Which result is listed for PLCB4, technical replicate 1?
viability, normalised (%): 57.8 (active)

For PLCB4, technical replicate 2, how do the results read?
viability, normalised (%): 46.1 (active)

How did the screen score PLCB4, technical replicate 3?
viability, normalised (%): 49.1 (active)
